PubChem BioAssay AID588590 (National Center for Advancing Translational Sciences (NCATS), 2011)
Screen size: about 390,000 compounds; about 4,000 (1%) were called active. Only results without a clear call are listed here; the source files them as inconclusive. Calls follow the shape of the dose curve; as a rule, active = well fitted inhibition curve with a large enough effect; inconclusive = small, poorly fitted or top-dose-only effect, or another doubt; inactive = no such curve, though single readings can be large or run the other way.

Protein sequences, listed by entry. Tags and fused reporters are not part of them.
UniProt Q9UNA4, whole entry: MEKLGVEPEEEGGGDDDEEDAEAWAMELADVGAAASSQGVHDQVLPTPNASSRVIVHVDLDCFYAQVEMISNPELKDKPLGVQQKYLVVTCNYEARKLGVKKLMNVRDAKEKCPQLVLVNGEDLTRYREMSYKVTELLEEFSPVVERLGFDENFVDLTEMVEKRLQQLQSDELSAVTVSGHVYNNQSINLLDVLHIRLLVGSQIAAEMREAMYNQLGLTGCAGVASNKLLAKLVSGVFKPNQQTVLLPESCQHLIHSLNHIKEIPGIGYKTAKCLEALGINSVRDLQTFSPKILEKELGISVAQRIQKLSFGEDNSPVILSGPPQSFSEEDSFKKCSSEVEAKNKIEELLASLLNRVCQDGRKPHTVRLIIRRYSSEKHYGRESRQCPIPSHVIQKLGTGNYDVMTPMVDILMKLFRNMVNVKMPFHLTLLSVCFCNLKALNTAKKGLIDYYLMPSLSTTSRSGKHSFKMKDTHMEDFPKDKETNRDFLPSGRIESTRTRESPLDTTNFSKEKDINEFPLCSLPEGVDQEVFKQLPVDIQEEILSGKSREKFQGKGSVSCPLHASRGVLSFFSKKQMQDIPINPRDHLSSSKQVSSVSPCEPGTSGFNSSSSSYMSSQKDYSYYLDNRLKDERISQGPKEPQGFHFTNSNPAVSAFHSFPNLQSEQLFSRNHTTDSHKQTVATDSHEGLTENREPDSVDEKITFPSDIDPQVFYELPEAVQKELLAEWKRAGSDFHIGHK

molecular target: DNA polymerase iota (Homo sapiens) (UniProt Q9UNA4); experiment: qHTS for Inhibitors of Polymerase Iota; conditions: Pol iota fluorescent replication assay, 10 min
Potency is read from the fitted curve at half-maximal effect.

| Compound | Potency |
| --- | --- |
| O=[N+]([O-])c1cc([N+](=O)[O-])c(Nc2ccccn2)c([N+](=O)[O-])c1 | inconclusive: 11.2 µM |
| COc1ccc(OP(C)(=O)Nc2ccccn2)cc1 (stereo not given) | inconclusive: 39.8 µM |
| O=C(OCCN1CCN(CCOCc2ccccc2)CC1)C(O)(c1ccccc1)c1ccccc1 | inconclusive: 100 µM |
| COc1ccc(OP(C)(=O)Nc2cccc(F)c2)cc1 (stereo not given) | inconclusive: 100 µM |
| O=[N+]([O-])c1cc([N+](=O)[O-])c(Nc2cccnc2)c([N+](=O)[O-])c1 | inconclusive: 31.6 µM |
